Laboratory results published in the supplement of paper PMC12282887.
± gives the standard deviation of the averaged measurements. Values are raw readings; no control value is given beside them.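 The top concentration was set near the MIC for antimicrobials, at 500 µM for most other compounds, and up to 1 mM for known inducer-like compounds. Deletion strains started from a tenfold smaller inoculum, and wells growing below 10% of the overall median were treated as non-growing.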

System: Escherichia coli BW25113
Experiment: growth (OD600 area under curve, 8 h) (OD600 x h); higher = more growth
Method: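 E. coli BW25113 reporter strains (wild type, ΔmarA, ΔsoxS, Δrob, each carrying one of 8 lux reporter plasmids) were grown in 40 µl LB in 384-well plates at 37°C, 800 rpm, with each compound at 4 two-fold concentrations, in biological duplicates. Growth is the baseline-corrected OD600 area under the curve over 8 h (0-8 h WT, 1-9 h deletion strains).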

CO/N=C(\C(=O)N[C@@H]1C(=O)N2C(C(=O)O)=C(COC(C)=O)CS[C@H]12)c1csc(N)n1 [Cefotaxime]
growth
Settings	reporter plasmid: EVC	reporter plasmid: acrABp	reporter plasmid: marRABp	reporter plasmid: micFp	reporter plasmid: ompFp	reporter plasmid: robp	reporter plasmid: soxSp	reporter plasmid: tolCp
0.0012 µg/ml, genetic background: wild type	2.92 ± 0.09	3.35 ± 0.22	3.3149 ± 0.00066	2.99 ± 0.21	3.17 ± 0.072	3.4 ± 0.059	2.957 ± 0.019	3.14 ± 0.037
0.0012 µg/ml, genetic background: ΔmarA	3.06 ± 0.49	3.97 ± 0.13	3.63 ± 0.3	3.23 ± 0.74	3.61 ± 0.86	4 ± 0.34	3.15 ± 0.43	3.09 ± 0.38
0.0012 µg/ml, genetic background: Δrob	3.02 ± 0.3	3.18 ± 0.054	3.39 ± 0.59	2.937 ± 0.01	2.76 ± 0.61	2.87 ± 0.34	2.698 ± 0.01	3.119 ± 0.025
0.0012 µg/ml, genetic background: ΔsoxS	3.25 ± 0.33	3.3 ± 0.44	3.32 ± 0.84	2.968 ± 0.024	3.21 ± 0.39	3.33 ± 0.38	3.34 ± 0.3	2.9889 ± 0.0017
0.0024 µg/ml, genetic background: wild type	2.75 ± 0.038	3.29 ± 0.14	3.17 ± 0.09	2.97 ± 0.29	3.13 ± 0.098	3.25 ± 0.069	2.86 ± 0.12	3.01 ± 0.051
0.0024 µg/ml, genetic background: ΔmarA	2.88 ± 0.2	3.8 ± 0.094	3.56 ± 0.1	3.15 ± 0.9	3.55 ± 0.96	3.87 ± 0.44	2.98 ± 0.68	3.05 ± 0.28
0.0024 µg/ml, genetic background: Δrob	3.01 ± 0.29	2.97 ± 0.046	3.43 ± 0.4	3.01 ± 0.035	2.72 ± 0.51	3 ± 0.25	2.57 ± 0.21	2.958 ± 0.01
0.0024 µg/ml, genetic background: ΔsoxS	3.13 ± 0.19	3.25 ± 0.67	3.27 ± 0.81	2.96 ± 0.063	3.34 ± 0.22	3.25 ± 0.58	3.24 ± 0.53	2.99 ± 0.19
0.0048 µg/ml, genetic background: wild type	2.746 ± 0.013	3.42 ± 0.32	3.43 ± 0.22	2.92 ± 0.084	3.25 ± 0.013	3.43 ± 0.053	2.98 ± 0.15	3 ± 0.04
0.0048 µg/ml, genetic background: ΔmarA	2.99 ± 0.19	3.97 ± 0.06	3.71 ± 0.18	3.2 ± 0.44	3.75 ± 0.86	4.07 ± 0.38	3.02 ± 0.14	3.1 ± 0.16
0.0048 µg/ml, genetic background: Δrob	2.961 ± 0.023	3.3 ± 0.16	3.44 ± 0.35	2.75 ± 0.17	2.86 ± 0.27	2.72 ± 0.36	2.63 ± 0.033	2.98 ± 0.13
0.0048 µg/ml, genetic background: ΔsoxS	3.31 ± 0.19	3.39 ± 0.73	3.49 ± 0.89	3.1 ± 0.065	3.31 ± 0.051	3.49 ± 0.22	3.28 ± 0.51	3.031 ± 0.015
0.01 µg/ml, genetic background: wild type	2.26 ± 0.2	2.18 ± 0.69	2.23 ± 0.099	2.45 ± 0.16	2.05 ± 0.75	2.54 ± 0.03	2.65 ± 0.11	2.73 ± 0.087
0.01 µg/ml, genetic background: ΔmarA	2.85 ± 0.24	1.7 ± 0.22	1.38 ± 0.66	2.81 ± 0.6	0.758 ± 0.23	2.6 ± 1.4	2.88 ± 0.46	2.78 ± 0.13
0.01 µg/ml, genetic background: Δrob	2.729 ± 0.0033	1.12 ± 0.13	1.89 ± 0.58	2.38 ± 0.18	0.473 ± 0.2	0.561 ± 0.34	2.475 ± 0.01	2.709 ± 0.0058
0.01 µg/ml, genetic background: ΔsoxS	2.98 ± 0.058	1.72 ± 0.62	1.89 ± 0.38	2.413 ± 0.013	0.808 ± 0.87	0.924 ± 0.63	2.28 ± 0.32	2.81 ± 0.04

C/C=C/C/C=C/CCC(=O)[C@H]1O[C@H]1C(N)=O [Cerulenin]
growth
Settings	reporter plasmid: EVC	reporter plasmid: acrABp	reporter plasmid: marRABp	reporter plasmid: micFp	reporter plasmid: ompFp	reporter plasmid: robp	reporter plasmid: soxSp	reporter plasmid: tolCp
1.3 µg/ml, genetic background: wild type	2.81 ± 0.24	2.48 ± 0.23	3.01 ± 0.18	2.89 ± 0.58	2.64 ± 0.26	2.95 ± 0.2	2.79 ± 0.044	2.86 ± 0.43
1.3 µg/ml, genetic background: ΔmarA	3.11 ± 0.34	3.37 ± 1.4	3.15 ± 0.5	2.91 ± 0.16	3.05 ± 0.5	3.08 ± 0.54	2.63 ± 0.34	2.78 ± 0.24
1.3 µg/ml, genetic background: Δrob	2.38 ± 0.65	2.98 ± 0.17	3.06 ± 0.061	2.98 ± 0.56	2.16 ± 0.41	2.3 ± 0.032	2.77 ± 0.55	2.82 ± 0.56
1.3 µg/ml, genetic background: ΔsoxS	2.6 ± 0.22	2.63 ± 0.89	2.76 ± 0.6	2.57 ± 0.17	2.44 ± 0.44	2.82 ± 0.082	2.72 ± 0.53	2.73 ± 0.18
2.5 µg/ml, genetic background: wild type	2.74 ± 0.22	2.67 ± 0.35	2.89 ± 0.14	2.73 ± 0.31	2.68 ± 0.34	3.05 ± 0.45	2.487 ± 0.01	2.57 ± 0.32
2.5 µg/ml, genetic background: ΔmarA	3.22 ± 0.32	4.05 ± 0.63	2.74 ± 0.077	2.96 ± 0.19	2.68 ± 0.94	2.86 ± 0.58	2.57 ± 0.3	2.78 ± 0.33
2.5 µg/ml, genetic background: Δrob	2.59 ± 0.53	3.55 ± 0.12	3.28 ± 0.058	2.74 ± 0.041	2.21 ± 0.68	2.56 ± 0.18	2.54 ± 0.2	2.52 ± 0.14
2.5 µg/ml, genetic background: ΔsoxS	2.5 ± 0.12	2.87 ± 0.86	2.86 ± 0.77	2.29 ± 0.17	2.58 ± 0.35	2.821 ± 0.021	2.81 ± 0.56	2.57 ± 0.36
5 µg/ml, genetic background: wild type	2.81 ± 0.21	2.68 ± 0.25	3.194 ± 0.017	2.8 ± 0.37	2.68 ± 0.21	2.89 ± 0.25	2.69 ± 0.19	2.81 ± 0.38
5 µg/ml, genetic background: ΔmarA	2.88 ± 0.062	3.53 ± 1.4	3.03 ± 1	2.68 ± 0.055	3.05 ± 0.36	3.28 ± 0.58	2.35 ± 0.39	2.71 ± 0.21
5 µg/ml, genetic background: Δrob	2.4 ± 0.47	2.96 ± 0.16	3.22 ± 0.15	2.97 ± 0.59	2.4 ± 0.73	2.44 ± 0.12	2.55 ± 0.33	2.75 ± 0.37
5 µg/ml, genetic background: ΔsoxS	2.56 ± 0.17	2.72 ± 1.1	3.08 ± 0.72	2.23 ± 0.041	2.65 ± 0.57	3.03 ± 0.12	2.81 ± 0.59	2.59 ± 0.26
10 µg/ml, genetic background: wild type	2.66 ± 0.17	2.46 ± 0.47	2.67 ± 0.2	2.66 ± 0.29	2.07 ± 0.025	2.41 ± 0.16	2.33 ± 0.098	2.45 ± 0.4
10 µg/ml, genetic background: ΔmarA	2.67 ± 0.028	2.47 ± 0.73	2.19 ± 0.8	2.52 ± 0.12	1.79 ± 0.72	2.6 ± 1.2	2.12 ± 0.16	2.49 ± 0.15
10 µg/ml, genetic background: Δrob	2.1 ± 0.25	2.31 ± 0.23	2.4 ± 0.42	2.32 ± 0.14	1.51 ± 0.3	1.77 ± 0.061	2.32 ± 0.35	2.34 ± 0.19
10 µg/ml, genetic background: ΔsoxS	2.21 ± 0.22	2.52 ± 0.99	2.56 ± 0.76	1.84 ± 0.049	1.55 ± 0.45	2.14 ± 0.059	2.19 ± 0.6	2.52 ± 0.52
